These results are taken from the supplement of paper PMC9015667.

Where a name gives a salt, the structure may show the parent alone. This is one part of the list. Single values are uncertain, as repeats are few or missing. Some results are limits rather than exact numbers.

One test has as its system M249P (parental melanoma line). In words: reduction in cell viability relative to untreated/vehicle; higher = more growth inhibition. Conditions: 200 nM; 72 h.
As to `COc1ccc(-c2nc3cc(C4=NNC(=O)CC4C)ccc3[nH]2)cc1` (configuration not stated) [Pimobendan hydrochloride], the “reduction in cell viability” value is less than 0%.

Consider `COc1ccc(-c2ccc3c(N4CCOC[C@@H]4C)nc(N4CCOC[C@@H]4C)nc3n2)cc1CO`, for which the “reduction in cell viability” value came out at 65.4%.

With `CC[C@H](CC#N)OC(=O)N[C@@H](C)c1cccc(NC(=O)Nc2ccc(-c3cnco3)c(OC)c2)c1`, the “reduction in cell viability” value came to 34.4%.

`Oc1ccc(-c2nc(-c3ccc(F)cc3)c(-c3ccncc3)[nH]2)cc1`: the “reduction in cell viability” value is less than 0%.

`Fc1cc(-c2cccc3ncc(-c4cnn(C5CCNCC5)c4)nc23)cc(F)c1CN1CCOCC1`: the “reduction in cell viability” value is less than 0%.

`c1ccc(-c2oc3ncnc(NC[C@@H]4CCCO4)c3c2-c2ccccc2)cc1`: the “reduction in cell viability” value is less than 0%.

Turning to `CS(=O)(=O)N(Cc1ccco1)C[C@@H](O)Cn1c2ccccc2c2ccccc21`, the “reduction in cell viability” value is less than 0%.

Take `Cn1cc(-c2ccncc2)c(-c2ccc(OCc3ccc4ccccc4n3)cc2)n1`: the “reduction in cell viability” value was less than 0%.

Turning to `CC(C)CN(C[C@@H](O)[C@H](Cc1ccccc1)NC(=O)O[C@H]1CCOC1)S(=O)(=O)c1ccc(N)cc1` [Amprenavir], the “reduction in cell viability” value was less than 0%.

For `CNC(=O)c1ccc2cc([C@@]3(O)CCn4cncc43)ccc2c1` [Orteronel], the “reduction in cell viability” value is less than 0%.

On to `CCN(CC)CCCCNc1ncc2c(n1)N(C)C(=O)N(c1c(Cl)c(OC)cc(OC)c1Cl)C2`, for which the “reduction in cell viability” value was less than 0%.

For the compound `CCOC(=O)N1c2ccc(C(F)(F)F)cc2[C@@H](N(Cc2cc(C(F)(F)F)cc(C(F)(F)F)c2)C(=O)OC)C[C@H]1CC` [Torcetrapib], the “reduction in cell viability” value was less than 0%.

With `CC(C)(C)c1[nH]cnc1/C=c1\[nH]c(=O)/c(=C/c2ccccc2)[nH]c1=O` [Plinabulin], the “reduction in cell viability” value was 62.1%.

As to `COc1cccc2c1C(=O)c1c(O)c3c(c(O)c1C2=O)C[C@@](O)(C(=O)CO)C[C@@H]3O[C@H]1C[C@H](N)[C@H](O[C@@H]2CCCCO2)[C@H](C)O1` [Pirarubicin], the “reduction in cell viability” value was less than 0%.

For `COC(c1ccccc1)(c1ccccc1)[C@H](Oc1nc(C)cc(C)n1)C(=O)O` [Ambrisentan], the “reduction in cell viability” value is less than 0%.

The next test concerns M249R (matched melanoma line resistant to BRAF inhibitors). Described as above. Conditions: 200 nM; 72 h.
With `Oc1cc2c(cc1O)[C@@H]1c3ccc(O)c(O)c3OC[C@]1(O)C2` [Hematoxylin], the “reduction in cell viability” value was less than 0%.

As to `C[C@H]1[C@H](C)CC[C@]2(C(=O)O)CC[C@]3(C)C(=CC[C@@H]4[C@@]5(C)CC[C@H](O)C(C)(C)[C@@H]5CC[C@]43C)[C@H]12` [Ursolic acid], the “reduction in cell viability” value was less than 0%.

With `C[C@@H](O)[C@H]1C(=O)N2C(C(=O)OCOC(=O)C(C)(C)C)=C(SC3CN(C4=NCCS4)C3)[C@H](C)[C@H]12` [Tebipenem pivoxil], the “reduction in cell viability” value was less than 0%.

Take `O=C(Nc1nnc(-c2ccco2)o1)c1cc(-c2ccccc2)nc2ccccc12`: the “reduction in cell viability” value was less than 0%.

Regarding `CCOC(=O)/C=C/[C@H](C[C@@H]1CCNC1=O)NC(=O)[C@@H](CC(=O)[C@@H](NC(=O)c1cc(C)on1)C(C)C)Cc1ccc(F)cc1` [Rupintrivir], the “reduction in cell viability” value is less than 0%.

On to `CC(C)CC(=O)Nc1n[nH]c2c1CN(C(=O)C1CCN(C)CC1)C2(C)C`, for which the “reduction in cell viability” value amounted to 57.9%.

Take `Cc1nc(-c2ccc(OCC(C)C)c(C#N)c2)sc1C(=O)O` [Febuxostat]: the “reduction in cell viability” value is less than 0%.

Turning to `O=C(NC1CC1)c1cccc(-c2ccc3c(NC(=O)C4CC4)n[nH]c3c2)c1`, the “reduction in cell viability” value was 0.82%.

For the compound `COC(=O)C1=C(C)NC(C)=C(C(=O)OCCN2CCN(C(c3ccccc3)c3ccccc3)CC2)C1c1cccc([N+](=O)[O-])c1` (configuration not stated) [Manidipine dihydrochloride], the “reduction in cell viability” value is less than 0%.

Turning to `O=C1CCC(N2C(=O)c3ccccc3C2=O)C(=O)N1` (configuration not stated) [Thalidomide], the “reduction in cell viability” value is less than 0%.

Consider `CC1(C)C(=O)N(CCN2CCC(C(=O)c3ccc(F)cc3)CC2)c2ccccc21`, for which the “reduction in cell viability” value is less than 0%.

As to `COC1=CC(c2cc3ccccc3[nH]2)=N/C1=C\c1[nH]c(C)cc1C` [Obatoclax], the “reduction in cell viability” value was determined as 75.9%.

`C[C@H]1c2cccc(O)c2C(=O)C2=C(O)[C@]3(O)C(=O)C(C(N)=O)=C(O)[C@@H](N(C)C)[C@@H]3[C@@H](O)[C@@H]21` [Doxycycline]: the “reduction in cell viability” value was less than 0%.

As to `Cc1cn([C@H]2O[C@@H](CO)[C@H](O)[C@H]2F)c(=O)[nH]c1=O` [Clevudine], the “reduction in cell viability” value is less than 0%.

On to `Cc1nc(Nc2ncc(C(=O)Nc3c(C)cccc3Cl)s2)cc(N2CCN(CCO)CC2)n1` [Dasatinib], for which the “reduction in cell viability” value was less than 0%.

On to `CC[N+](CC)(CC)CCOc1cccc(OCC[N+](CC)(CC)CC)c1OCC[N+](CC)(CC)CC` [Gallamine triethiodide], for which the “reduction in cell viability” value was 7.51%.

On to `Fc1ccc(C(c2ccc(F)cc2)N2CCN(C/C=C/c3ccccc3)CC2)cc1` [Flunarizine], for which the “reduction in cell viability” value is less than 0%.
